Positions count from the first letter of the chain named. Results are given in words; binding and its absence hold for the method and conditions named. In cells and extracts the contact can be indirect. For some assays here: A result given as binding can be weak or reduced; the word gives no strength. Where a sequence is shown, tags or fusion partners need not be part of it.
Tests used:
[1] = molecular target: T1, Whi7-HA^S27A,T100A (S. cerevisiae) (UniProt P36167); assay: co-IP; Whi7-HA immunoprecipitated from crude extracts of grr1 cells overexpressing Grr1ΔF-FLAG (raffinose, then galactose for 4 h); Grr1ΔF detected by western analysis
T1 sequence: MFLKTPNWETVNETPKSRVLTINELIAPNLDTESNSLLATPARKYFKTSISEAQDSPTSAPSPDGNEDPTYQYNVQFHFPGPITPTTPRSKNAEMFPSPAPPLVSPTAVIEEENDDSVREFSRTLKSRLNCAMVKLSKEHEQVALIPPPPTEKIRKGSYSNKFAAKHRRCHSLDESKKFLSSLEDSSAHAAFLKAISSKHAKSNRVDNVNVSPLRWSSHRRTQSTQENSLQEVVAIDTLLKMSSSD

Chains of the proteins cited; added tags and fusions are not shown. Lines headed by an entry give the natural chain unless they say otherwise; changes in a name come on top.
UniProt P24814: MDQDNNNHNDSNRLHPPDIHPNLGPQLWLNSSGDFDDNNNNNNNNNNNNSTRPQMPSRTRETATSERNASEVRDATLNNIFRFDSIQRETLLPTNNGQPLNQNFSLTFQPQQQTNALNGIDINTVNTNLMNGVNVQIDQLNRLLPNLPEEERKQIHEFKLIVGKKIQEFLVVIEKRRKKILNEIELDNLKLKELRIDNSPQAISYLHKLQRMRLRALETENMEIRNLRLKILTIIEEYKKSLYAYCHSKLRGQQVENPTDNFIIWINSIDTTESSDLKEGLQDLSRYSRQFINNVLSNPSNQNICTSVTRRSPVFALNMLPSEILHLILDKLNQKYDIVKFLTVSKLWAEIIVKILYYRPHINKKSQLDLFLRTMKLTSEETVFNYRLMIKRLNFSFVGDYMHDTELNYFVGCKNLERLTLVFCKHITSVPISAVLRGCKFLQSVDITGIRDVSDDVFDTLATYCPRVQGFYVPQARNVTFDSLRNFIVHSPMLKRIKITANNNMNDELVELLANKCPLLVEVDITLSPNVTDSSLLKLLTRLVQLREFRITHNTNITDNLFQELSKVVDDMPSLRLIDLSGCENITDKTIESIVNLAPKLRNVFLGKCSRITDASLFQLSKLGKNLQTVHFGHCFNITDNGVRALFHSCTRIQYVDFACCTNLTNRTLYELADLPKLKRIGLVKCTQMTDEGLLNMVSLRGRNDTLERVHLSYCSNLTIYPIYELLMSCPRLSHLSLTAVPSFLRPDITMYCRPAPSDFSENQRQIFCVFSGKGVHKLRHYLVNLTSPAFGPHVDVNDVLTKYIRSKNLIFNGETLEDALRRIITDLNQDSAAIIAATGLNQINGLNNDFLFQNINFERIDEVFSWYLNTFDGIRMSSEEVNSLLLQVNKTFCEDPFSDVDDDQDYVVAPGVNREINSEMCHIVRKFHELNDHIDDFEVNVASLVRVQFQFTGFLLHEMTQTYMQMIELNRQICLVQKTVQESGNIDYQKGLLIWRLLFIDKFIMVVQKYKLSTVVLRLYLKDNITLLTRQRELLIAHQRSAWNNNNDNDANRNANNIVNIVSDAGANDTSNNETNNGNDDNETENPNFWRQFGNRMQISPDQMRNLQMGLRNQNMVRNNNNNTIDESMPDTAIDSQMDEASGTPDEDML

Whi7-HA (S. cerevisiae) = molecular target: T2, Whi7-HA (S. cerevisiae) (UniProt P36167); assay: as above
T2 sequence: T1 sequence with A27S, A100T

- binding [1]: no binding
- binding (Whi7-HA (S. cerevisiae)): binds
Substance: Grr1ΔF-FLAG (from UniProt P24814)
